Data published in patent publication US20110008436A1 (published 2011).
These are yes or no findings as the source states them, for the method shown. Some results given as binding are weak or reduced against the parent protein; the word gives no strength.

Chains of the proteins cited; added tags and fusions are not shown. Lines headed by an entry give the natural chain unless they say otherwise; changes in a name come on top.
UniProt P05790: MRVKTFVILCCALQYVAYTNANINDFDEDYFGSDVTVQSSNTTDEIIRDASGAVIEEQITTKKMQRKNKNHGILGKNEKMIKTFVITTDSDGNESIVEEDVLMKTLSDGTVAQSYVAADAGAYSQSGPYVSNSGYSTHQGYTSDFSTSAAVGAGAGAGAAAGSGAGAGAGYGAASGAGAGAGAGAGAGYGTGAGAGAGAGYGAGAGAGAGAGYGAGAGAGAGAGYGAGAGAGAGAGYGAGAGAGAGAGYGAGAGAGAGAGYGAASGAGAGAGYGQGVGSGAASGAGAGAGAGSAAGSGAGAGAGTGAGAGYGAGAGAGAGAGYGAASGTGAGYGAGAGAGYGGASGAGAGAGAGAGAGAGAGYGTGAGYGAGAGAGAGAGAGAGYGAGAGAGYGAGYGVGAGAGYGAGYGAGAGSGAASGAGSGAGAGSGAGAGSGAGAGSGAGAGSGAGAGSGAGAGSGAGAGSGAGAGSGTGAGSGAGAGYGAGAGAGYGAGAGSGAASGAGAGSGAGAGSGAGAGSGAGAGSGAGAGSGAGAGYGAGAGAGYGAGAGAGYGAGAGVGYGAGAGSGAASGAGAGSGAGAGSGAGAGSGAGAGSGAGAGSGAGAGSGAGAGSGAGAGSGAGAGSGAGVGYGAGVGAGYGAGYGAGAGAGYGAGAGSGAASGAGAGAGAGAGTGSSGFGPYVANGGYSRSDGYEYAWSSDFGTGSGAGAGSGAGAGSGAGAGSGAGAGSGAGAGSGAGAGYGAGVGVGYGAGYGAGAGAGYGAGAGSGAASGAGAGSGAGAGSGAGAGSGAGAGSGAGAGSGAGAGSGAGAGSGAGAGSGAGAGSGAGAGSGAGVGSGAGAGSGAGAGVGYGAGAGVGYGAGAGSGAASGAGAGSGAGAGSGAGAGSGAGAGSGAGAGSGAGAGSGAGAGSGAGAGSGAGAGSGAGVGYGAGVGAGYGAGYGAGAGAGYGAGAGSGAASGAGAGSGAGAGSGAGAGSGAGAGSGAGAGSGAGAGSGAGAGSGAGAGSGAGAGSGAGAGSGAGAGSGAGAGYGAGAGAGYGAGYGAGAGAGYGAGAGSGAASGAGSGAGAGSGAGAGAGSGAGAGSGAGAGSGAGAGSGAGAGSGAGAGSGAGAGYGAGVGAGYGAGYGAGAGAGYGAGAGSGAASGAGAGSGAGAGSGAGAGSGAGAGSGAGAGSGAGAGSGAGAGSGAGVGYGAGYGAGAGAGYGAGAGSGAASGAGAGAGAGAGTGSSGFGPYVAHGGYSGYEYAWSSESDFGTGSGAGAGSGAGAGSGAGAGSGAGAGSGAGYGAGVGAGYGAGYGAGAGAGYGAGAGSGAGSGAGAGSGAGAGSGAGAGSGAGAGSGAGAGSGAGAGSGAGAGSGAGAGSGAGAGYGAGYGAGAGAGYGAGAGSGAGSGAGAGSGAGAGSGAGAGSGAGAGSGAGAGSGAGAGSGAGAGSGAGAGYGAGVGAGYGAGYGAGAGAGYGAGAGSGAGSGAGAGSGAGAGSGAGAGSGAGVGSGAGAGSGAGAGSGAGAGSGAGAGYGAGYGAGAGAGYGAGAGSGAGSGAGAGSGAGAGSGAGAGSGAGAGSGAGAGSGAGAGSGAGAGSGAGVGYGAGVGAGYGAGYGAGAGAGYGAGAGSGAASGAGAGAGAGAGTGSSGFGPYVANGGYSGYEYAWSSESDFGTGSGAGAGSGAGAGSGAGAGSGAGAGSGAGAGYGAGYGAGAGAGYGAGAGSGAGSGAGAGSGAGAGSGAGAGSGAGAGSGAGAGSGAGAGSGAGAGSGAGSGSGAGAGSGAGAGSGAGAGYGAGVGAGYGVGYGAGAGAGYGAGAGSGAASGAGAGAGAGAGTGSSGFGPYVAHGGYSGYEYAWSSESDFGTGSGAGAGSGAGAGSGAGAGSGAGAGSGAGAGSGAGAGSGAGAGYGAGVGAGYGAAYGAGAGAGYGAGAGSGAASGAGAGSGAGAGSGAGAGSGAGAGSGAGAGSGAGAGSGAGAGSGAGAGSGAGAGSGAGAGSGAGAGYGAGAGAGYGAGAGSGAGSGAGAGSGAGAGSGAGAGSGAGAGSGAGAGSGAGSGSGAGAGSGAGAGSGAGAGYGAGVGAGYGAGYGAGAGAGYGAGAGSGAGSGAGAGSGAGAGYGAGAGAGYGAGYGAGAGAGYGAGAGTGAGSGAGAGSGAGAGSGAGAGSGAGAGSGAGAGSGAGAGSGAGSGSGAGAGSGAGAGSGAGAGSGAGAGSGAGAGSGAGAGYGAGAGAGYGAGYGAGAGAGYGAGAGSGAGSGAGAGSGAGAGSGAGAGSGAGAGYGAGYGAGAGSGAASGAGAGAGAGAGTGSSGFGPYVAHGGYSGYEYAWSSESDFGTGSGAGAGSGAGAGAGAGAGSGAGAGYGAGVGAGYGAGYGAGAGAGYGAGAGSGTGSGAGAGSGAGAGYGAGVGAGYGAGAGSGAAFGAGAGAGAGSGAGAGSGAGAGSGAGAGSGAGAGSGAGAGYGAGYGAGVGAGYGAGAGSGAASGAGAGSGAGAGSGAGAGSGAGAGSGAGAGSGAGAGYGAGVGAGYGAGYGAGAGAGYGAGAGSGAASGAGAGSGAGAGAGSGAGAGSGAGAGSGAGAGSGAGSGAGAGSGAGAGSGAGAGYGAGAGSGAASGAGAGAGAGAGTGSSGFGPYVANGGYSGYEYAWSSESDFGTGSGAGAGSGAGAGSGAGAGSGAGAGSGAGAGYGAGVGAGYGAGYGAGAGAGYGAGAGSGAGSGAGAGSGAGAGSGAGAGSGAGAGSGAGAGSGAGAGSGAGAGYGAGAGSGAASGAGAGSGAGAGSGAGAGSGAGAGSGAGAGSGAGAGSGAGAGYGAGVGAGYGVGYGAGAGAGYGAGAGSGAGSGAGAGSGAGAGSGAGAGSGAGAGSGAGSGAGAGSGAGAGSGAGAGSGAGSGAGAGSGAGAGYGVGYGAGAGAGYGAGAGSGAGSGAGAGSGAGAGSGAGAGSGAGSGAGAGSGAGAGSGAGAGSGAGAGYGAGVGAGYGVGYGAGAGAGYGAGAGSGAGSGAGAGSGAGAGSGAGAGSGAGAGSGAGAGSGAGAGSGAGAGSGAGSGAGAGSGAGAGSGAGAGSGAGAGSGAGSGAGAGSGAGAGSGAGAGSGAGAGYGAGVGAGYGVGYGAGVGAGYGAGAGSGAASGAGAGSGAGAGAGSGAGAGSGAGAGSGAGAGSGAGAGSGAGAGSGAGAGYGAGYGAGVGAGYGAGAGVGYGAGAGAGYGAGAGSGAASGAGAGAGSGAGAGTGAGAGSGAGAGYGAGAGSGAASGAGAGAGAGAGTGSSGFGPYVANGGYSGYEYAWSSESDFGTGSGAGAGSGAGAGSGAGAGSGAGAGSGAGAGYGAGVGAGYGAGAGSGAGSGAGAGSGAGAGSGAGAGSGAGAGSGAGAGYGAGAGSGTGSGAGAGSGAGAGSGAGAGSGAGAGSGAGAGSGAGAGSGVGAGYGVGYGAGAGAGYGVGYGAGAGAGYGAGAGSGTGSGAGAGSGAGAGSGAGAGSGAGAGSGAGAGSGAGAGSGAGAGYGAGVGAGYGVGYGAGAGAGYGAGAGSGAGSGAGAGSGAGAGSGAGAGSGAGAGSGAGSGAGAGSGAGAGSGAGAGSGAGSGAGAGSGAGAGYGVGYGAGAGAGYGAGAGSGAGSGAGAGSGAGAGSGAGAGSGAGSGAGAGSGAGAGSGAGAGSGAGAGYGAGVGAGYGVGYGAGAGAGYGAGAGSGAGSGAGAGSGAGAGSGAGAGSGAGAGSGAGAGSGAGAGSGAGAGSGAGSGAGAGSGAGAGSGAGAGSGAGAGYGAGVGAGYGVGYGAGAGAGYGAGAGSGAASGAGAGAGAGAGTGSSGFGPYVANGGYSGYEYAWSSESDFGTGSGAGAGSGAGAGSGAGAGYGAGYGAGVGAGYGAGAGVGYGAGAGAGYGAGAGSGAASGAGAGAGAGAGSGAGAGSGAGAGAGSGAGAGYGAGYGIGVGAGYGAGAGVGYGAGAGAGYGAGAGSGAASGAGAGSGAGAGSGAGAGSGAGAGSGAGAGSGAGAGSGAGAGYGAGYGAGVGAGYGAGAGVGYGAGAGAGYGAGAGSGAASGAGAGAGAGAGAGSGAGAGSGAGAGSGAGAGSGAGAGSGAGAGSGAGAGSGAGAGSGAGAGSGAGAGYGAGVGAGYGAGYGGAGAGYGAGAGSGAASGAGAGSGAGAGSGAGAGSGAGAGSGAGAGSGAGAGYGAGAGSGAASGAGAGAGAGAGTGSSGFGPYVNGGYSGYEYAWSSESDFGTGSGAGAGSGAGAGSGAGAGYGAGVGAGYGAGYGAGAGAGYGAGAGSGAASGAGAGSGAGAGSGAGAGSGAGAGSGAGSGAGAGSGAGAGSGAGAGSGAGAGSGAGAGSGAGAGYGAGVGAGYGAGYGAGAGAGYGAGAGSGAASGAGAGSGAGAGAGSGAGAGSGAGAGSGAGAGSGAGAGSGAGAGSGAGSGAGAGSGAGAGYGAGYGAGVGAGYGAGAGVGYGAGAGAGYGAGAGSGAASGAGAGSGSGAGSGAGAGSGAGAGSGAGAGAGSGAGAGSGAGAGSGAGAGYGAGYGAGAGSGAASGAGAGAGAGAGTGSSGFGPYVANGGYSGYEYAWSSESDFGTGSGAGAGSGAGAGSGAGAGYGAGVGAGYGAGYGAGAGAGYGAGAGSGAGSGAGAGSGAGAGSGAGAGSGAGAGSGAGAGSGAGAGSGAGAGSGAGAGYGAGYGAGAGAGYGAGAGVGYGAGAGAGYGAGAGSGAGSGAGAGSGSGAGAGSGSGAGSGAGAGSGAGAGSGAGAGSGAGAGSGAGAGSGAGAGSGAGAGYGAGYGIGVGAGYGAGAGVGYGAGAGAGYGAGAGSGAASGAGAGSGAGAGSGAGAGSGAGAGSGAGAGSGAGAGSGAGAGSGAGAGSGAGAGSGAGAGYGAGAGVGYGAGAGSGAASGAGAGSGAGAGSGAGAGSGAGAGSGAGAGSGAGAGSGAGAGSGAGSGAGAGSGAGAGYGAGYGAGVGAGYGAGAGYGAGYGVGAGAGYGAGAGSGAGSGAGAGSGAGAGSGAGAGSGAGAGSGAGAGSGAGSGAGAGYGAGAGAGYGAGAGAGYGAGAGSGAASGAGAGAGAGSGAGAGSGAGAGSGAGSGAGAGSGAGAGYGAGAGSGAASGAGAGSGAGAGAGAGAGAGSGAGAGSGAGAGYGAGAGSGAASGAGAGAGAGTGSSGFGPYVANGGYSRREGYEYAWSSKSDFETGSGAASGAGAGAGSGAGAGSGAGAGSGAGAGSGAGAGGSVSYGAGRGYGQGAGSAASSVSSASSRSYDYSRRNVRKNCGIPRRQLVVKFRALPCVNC
UniProt P21828: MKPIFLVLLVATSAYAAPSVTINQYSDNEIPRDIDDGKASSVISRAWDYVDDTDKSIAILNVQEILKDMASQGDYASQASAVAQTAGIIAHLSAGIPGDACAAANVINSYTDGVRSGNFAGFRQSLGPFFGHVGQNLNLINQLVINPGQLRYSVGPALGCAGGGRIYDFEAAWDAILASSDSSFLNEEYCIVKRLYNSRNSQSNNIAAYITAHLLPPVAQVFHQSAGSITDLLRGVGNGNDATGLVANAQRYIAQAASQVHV

Assays:
[1] = molecular target: T1, Substantially sericin-depleted silk fibroin from Bombyx mori (dissolved in 9.3 M LiBr, dialysed, then gelled or precipitated) (Bombyx mori) (UniProt P05790+P21828); assay: HPLC of 23RGD in silk precipitates
[2] = molecular target: T1, Substantially sericin-depleted silk fibroin from Bombyx mori (dissolved in 9.3 M LiBr, dialysed, then gelled or precipitated) (Bombyx mori); assay: HPLC of gel made with a 3:1 23RGD:silk enhancer, rinsed several times in water over several days
[3] = molecular target: T1, Substantially sericin-depleted silk fibroin from Bombyx mori (dissolved in 9.3 M LiBr, dialysed, then gelled or precipitated) (Bombyx mori); assay: HPLC of 23RGD in silk precipitates (FIG. 22)
[4] = molecular target: T1, Substantially sericin-depleted silk fibroin from Bombyx mori (dissolved in 9.3 M LiBr, dialysed, then gelled or precipitated) (Bombyx mori); assay: HPLC of rinse buffers and of the gel extract
[5] = molecular target: T1, Substantially sericin-depleted silk fibroin from Bombyx mori (dissolved in 9.3 M LiBr, dialysed, then gelled or precipitated) (Bombyx mori); assay: Precipitate seen on adding the 23RGD-ethanol accelerant to silk solution

Measured: binding

B1: 23RGD peptide (amphiphilic peptide …4SRL6R-NH2) (peptide)
peptide: GRGDIPASSKGGGGSRLLLLLLR
modifications: C-terminal amide (-NH2) as printed
binds: all assays above
